In paper PMC12412611:
These are yes or no findings as the source states them, for the method shown. Binding seen in cells or lysates may run through a third protein. Some entries that bind do so weakly or less than the wild type. Sequences can lack the tags named with a protein.

T1: TBK1 (tank-binding kinase), overexpressed, tag not told for these experiments (UniProt Q9UHD2)
T1 sequence: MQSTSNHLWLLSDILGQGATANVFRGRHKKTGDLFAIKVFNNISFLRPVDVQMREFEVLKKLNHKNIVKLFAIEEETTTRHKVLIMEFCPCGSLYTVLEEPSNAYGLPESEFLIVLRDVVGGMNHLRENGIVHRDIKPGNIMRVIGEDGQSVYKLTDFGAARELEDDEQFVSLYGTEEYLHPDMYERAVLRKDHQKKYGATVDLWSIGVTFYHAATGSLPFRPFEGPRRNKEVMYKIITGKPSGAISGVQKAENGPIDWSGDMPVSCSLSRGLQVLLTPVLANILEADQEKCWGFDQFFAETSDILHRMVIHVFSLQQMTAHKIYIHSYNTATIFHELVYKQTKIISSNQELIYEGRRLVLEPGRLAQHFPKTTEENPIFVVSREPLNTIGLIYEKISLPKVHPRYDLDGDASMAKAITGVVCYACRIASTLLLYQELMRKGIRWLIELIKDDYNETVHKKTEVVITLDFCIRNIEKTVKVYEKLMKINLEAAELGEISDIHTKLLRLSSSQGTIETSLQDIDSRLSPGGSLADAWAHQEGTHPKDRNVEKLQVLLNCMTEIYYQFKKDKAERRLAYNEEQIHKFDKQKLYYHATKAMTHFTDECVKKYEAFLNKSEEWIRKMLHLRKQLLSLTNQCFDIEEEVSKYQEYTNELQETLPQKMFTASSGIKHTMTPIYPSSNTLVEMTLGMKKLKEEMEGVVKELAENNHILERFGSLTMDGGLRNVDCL

T2: RIG-I (retinoic acid-inducible gene I), overexpressed, tag not told for these experiments (UniProt O95786)
T2 sequence: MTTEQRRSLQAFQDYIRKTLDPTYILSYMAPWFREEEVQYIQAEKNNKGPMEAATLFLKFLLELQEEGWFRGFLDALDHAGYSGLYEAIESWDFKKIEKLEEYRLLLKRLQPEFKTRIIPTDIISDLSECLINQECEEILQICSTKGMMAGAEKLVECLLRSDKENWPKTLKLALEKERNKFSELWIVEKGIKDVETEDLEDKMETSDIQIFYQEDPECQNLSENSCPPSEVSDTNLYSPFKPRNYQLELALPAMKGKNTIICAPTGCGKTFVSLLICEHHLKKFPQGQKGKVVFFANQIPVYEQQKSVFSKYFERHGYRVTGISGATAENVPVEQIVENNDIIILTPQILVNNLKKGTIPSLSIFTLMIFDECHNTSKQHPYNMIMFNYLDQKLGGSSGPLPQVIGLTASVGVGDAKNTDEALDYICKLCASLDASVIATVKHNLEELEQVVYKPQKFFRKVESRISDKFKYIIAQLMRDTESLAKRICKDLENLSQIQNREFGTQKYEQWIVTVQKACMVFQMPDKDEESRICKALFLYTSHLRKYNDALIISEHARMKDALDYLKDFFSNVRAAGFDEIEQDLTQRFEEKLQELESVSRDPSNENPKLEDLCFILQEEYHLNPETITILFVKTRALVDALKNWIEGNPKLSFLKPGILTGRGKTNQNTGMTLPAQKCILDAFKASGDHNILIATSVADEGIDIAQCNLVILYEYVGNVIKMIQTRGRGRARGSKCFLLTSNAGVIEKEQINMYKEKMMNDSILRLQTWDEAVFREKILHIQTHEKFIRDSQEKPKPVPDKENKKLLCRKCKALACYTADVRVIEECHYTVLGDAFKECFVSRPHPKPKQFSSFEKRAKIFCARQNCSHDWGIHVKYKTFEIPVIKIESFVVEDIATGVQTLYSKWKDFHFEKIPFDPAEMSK

T3: Flag-RIG-I (retinoic acid-inducible gene I), O95786
T3 chain: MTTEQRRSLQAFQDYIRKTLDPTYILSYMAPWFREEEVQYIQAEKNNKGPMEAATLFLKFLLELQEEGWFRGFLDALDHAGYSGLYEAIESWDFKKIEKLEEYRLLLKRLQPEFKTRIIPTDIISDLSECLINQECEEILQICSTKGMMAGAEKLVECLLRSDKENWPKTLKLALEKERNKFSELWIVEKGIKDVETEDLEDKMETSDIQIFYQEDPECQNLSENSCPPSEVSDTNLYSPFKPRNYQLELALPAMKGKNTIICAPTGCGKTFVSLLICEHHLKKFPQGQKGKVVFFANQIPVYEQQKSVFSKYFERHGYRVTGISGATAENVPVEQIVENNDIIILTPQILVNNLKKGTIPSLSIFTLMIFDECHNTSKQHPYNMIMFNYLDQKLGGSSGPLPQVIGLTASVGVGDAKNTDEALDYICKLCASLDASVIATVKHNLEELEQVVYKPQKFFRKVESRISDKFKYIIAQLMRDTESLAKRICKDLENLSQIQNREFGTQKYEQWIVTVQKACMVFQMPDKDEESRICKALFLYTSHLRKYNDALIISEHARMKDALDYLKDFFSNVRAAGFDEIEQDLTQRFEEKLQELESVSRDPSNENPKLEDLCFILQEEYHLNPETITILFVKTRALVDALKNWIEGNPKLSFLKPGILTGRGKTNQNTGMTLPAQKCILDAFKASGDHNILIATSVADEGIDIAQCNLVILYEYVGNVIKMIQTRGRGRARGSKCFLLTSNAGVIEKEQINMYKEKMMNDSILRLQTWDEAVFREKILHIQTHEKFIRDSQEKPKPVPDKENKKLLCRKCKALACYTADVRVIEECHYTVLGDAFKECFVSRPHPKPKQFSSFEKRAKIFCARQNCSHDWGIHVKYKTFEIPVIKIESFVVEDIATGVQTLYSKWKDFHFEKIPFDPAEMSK

T4: Flag-TBK1 (tank-binding kinase), Q9UHD2
T4 chain: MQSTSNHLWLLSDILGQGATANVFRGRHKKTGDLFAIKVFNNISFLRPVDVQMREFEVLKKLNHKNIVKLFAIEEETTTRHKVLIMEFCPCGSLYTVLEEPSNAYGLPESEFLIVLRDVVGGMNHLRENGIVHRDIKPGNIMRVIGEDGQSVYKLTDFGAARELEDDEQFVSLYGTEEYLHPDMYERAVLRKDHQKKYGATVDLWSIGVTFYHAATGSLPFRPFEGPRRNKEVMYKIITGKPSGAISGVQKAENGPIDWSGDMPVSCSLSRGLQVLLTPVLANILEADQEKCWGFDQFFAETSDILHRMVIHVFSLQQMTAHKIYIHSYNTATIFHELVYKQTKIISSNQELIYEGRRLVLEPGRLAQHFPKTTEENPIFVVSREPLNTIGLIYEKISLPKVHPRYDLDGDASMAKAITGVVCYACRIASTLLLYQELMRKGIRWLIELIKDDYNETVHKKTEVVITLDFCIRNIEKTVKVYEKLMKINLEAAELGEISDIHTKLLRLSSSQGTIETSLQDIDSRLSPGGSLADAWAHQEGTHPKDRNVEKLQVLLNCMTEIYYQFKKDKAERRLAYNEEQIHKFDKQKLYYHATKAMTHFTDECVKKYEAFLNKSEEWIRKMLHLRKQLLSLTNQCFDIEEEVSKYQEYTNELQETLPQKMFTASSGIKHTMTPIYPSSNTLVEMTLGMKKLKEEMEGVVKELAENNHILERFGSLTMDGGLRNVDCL


Key:
Test in all cases: co-IP; HEK293T co-transfected with the plasmids; IP lysis buffer with PMSF; anti-Flag beads at 4 °C overnight; immunoblot; some panels with CQ (40 µM, 6 h) and with or without co-expressed GSDMD-CT
[1] = molecular target: T1, TBK1 (tank-binding kinase), overexpressed, tag not told for these experiments
[2] = molecular target: T2, RIG-I (retinoic acid-inducible gene I), overexpressed, tag not told for these experiments
[3] = molecular target: T3, Flag-RIG-I (retinoic acid-inducible …); conditions: remark: other sources report otherwise
[4] = molecular target: T4, Flag-TBK1 (tank-binding kinase), Q9UHD2; conditions: remark: other sources report otherwise

Row | Binder | binding [1] | binding [2] | binding [3] | binding [4]
1 | NDP52 (protein, UniProt Q13137 1-446) MEETIKDPPTSAVLLDHCHFSQVIFNSVEKFYIPGGDVTCHYTFTQHFIPRRKDWIGIFRVGWKTTREYYTFMWVTLPIDLNNKSAKQQEVQFKAYYLPKDDEYYQFCYVDEDGVVRGASIPFQFRPENEEDILVVTTQGEVEEIEQHNKELCKENQELKDSCISLQKQNSDMQAELQKKQEELETLQSINKKLELKVKEQKDYWETELLQLKEQNQKMSSENEKMGIRVDQLQAQLSTQEKEMEKLVQGDQDKTEQLEQLKKENDHLFLSLTEQRKDQKKLEQTVEQMKQNETTAMKKQQELMDENFDLSKRLSENEIICNALQRQKERLEGENDLLKRENSRLLSYMGLDFNSLPYQVPTSDEGGARQNPGLAYGNPYSGIQESSSPSPLSIKKCPICKADDICDHTLEQQQMQPLCFNCPICDKIFPATEKQIFEDHVFCHSL | binds | binds | – | –
2 | HA-TRIM28 (Tripartite motif-containing 28), Q13263 1-835 (enzyme) MAASAAAASAAAASAASGSPGPGEGSAGGEKRSTAPSAAASASASAAASSPAGGGAEALELLEHCGVCRERLRPEREPRLLPCLHSACSACLGPAAPAAANSSGDGGAAGDGTVVDCPVCKQQCFSKDIVENYFMRDSGSKAATDAQDANQCCTSCEDNAPATSYCVECSEPLCETCVEAHQRVKYTKDHTVRSTGPAKSRDGERTVYCNVHKHEPLVLFCESCDTLTCRDCQLNAHKDHQYQFLEDAVRNQRKLLASLVKRLGDKHATLQKSTKEVRSSIRQVSDVQKRVQVDVKMAILQIMKELNKRGRVLVNDAQKVTEGQQERLERQHWTMTKIQKHQEHILRFASWALESDNNTALLLSKKLIYFQLHRALKMIVDPVEPHGEMKFQWDLNAWTKSAEAFGKIVAERPGTNSTGPAPMAPPRAPGPLSKQGSGSSQPMEVQEGYGFGSGDDPYSSAEPHVSGVKRSRSGEGEVSGLMRKVPRVSLERLDLDLTADSQPPVFKVFPGSTTEDYNLIVIERGAAAAATGQPGTAPAGTPGAPPLAGMAIVKEEETEAAIGAPPTATEGPETKPVLMALAEGPGAEGPRLASPSGSTSSGLEVVAPEGTSAPGGGPGTLDDSATICRVCQKPGDLVMCNQCEFCFHLDCHLPALQDVPGEEWSCSLCHVLPDLKEEDGSLSLDGADSTGVVAKLSPANQRKCERVLLALFCHEPCRPLHQLATDSTFSLDQPGGTLDLTLIRARLQEKLSPPYSSPQEFAQDVGRMFKQFNKLTEDKADVQSIIGLQRFFETRMNEAFGDTKFSAVLVEPPPMSLPGAGLSSQELSGGPGDGP | – | – | binds | binds
